Test results published in the supplement of paper PMC12542422.
Where a name gives a salt, the structure may show the parent alone. ± gives the standard deviation of the averaged measurements. The list shows a part of the results. These are raw signals, not scaled to a control.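 Across three biological replicates, HeLa cells were imaged for ribosome assembly using ENP1 staining (export block present or absent) or inducible tagged ribosomal protein reporters. Machine learning classified each cell's signal localization relative to DMSO controls. Hits exceeded the DMSO false-positive mean by five standard deviations and were then visually confirmed.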

Key:
[1] = system: HeLa K (ENP1 immunofluorescence, +LMB); assay: fraction of cells with nucleolar or nucleolar/nucleoplasmic ENP1 signal (MainHitrate); higher = more cells with nucleolar/nuclear readout signal (for ENP1 -LMB: less RNAPI inhibition; for +LMB ENP1 and RP reporters: stronger nuclear/nucleolar retention, i.e. ribosome biogenesis defect); conditions: concentration: 1 µM; treatment time: 6 h; ENP1 +LMB; leptomycin B: 20 nM, last 1.5 h
[2] = system: HeLa K (ENP1 immunofluorescence, no LMB); assay: as above; conditions: concentration: 1 µM; treatment time: 6 h; ENP1 -LMB; leptomycin B: none
HeLa RPS2-YFP reporter = assay: fraction of reporter-positive cells with nuclear (nucleolar or nucleolar/nucleoplasmic) RPS2-YFP (MainHitrate); higher = more cells with nucleolar/nuclear readout signal (for ENP1 -LMB: less RNAPI inhibition; for +LMB ENP1 and RP reporters: stronger nuclear/nucleolar retention, i.e. ribosome biogenesis defect); conditions: concentration: 1 µM; treatment time: 6 h
HeLa RPL29-GFP reporter = assay: fraction of reporter-positive cells with nuclear (nucleolar or nucleolar/nucleoplasmic) RPL29-GFP (MainHitrate); higher = more cells with nucleolar/nuclear readout signal (for ENP1 -LMB: less RNAPI inhibition; for +LMB ENP1 and RP reporters: stronger nuclear/nucleolar retention, i.e. ribosome biogenesis defect); conditions: concentration: 1 µM; treatment time: 6 h

Structure (SMILES)	fraction [1]	fraction [2]	fraction of reporter-positive cells with nuclear (HeLa RPS2-YFP reporter)	fraction of reporter-positive cells with nuclear (HeLa RPL29-GFP reporter)
O=C(c1ccc(OCCN2CCCCC2)cc1)c1c(-c2ccc(O)cc2)sc2cc(O)ccc12 [Evista (Raloxifene Hydrochloride)]	0.11 ± 0.11	0.9983 ± 0.003	0.116 ± 0.095	0.22 ± 0.074
CO[C@H]1O[C@@H]2O[C@@]3(C)CC[C@H]4[C@H](C)CC[C@@H]([C@H]1C)[C@@]24OO3 [Artemether (SM-224)]	0.164 ± 0.24	0.985 ± 0.026	0.12 ± 0.082	0.208 ± 0.078
Cc1onc(-c2ccccc2)c1-c1ccc(S(N)(=O)=O)cc1 [Bextra (valdecoxib)]	0.0584 ± 0.07	0.993 ± 0.011	0.109 ± 0.073	0.205 ± 0.049
CCn1cc(C(=O)O)c(=O)c2cnc(N3CCCC3)nc21 [Piromidic Acid]	0.0639 ± 0.072	0.9962 ± 0.0066	0.067 ± 0.049	0.299 ± 0.24
C[C@H]1NC(=O)NC1=O [Methylhydantoin-5-(D)]	0.246 ± 0.36	0.9964 ± 0.0062	0.184 ± 0.14	0.289 ± 0.25
COc1ccc2[nH]c([S@@+]([O-])Cc3ncc(C)c(OC)c3C)nc2c1 [Esomeprazole magnesium (Nexium)]	0.104 ± 0.091	0.9988 ± 0.002	0.108 ± 0.088	0.227 ± 0.067
Cn1c(=O)c2c(ncn2CC(O)CO)n(C)c1=O (stereo not drawn) [Dyphylline (Dilor)]	0.114 ± 0.084	0.997 ± 0.0052	0.117 ± 0.096	0.195 ± 0.041
Nc1ccc(S(N)(=O)=O)cc1 [Sulfanilamide]	0.076 ± 0.063	0.9983 ± 0.0029	0.0399 ± 0.021	0.209 ± 0.043
CC(=O)O[C@]1(C(C)=O)CC[C@H]2[C@@H]3C[C@H](C)C4=CC(=O)CC[C@]4(C)[C@H]3CC[C@@]21C [Medroxyprogesterone acetate]	0.131 ± 0.19	0.9956 ± 0.0076	0.179 ± 0.13	0.305 ± 0.085
COC(=O)C1=C(C)NC(C)=C(C(=O)OCCN2CCN(C(c3ccccc3)c3ccccc3)CC2)C1c1cccc([N+](=O)[O-])c1 (stereo not drawn) [Manidipine (Manyper)]	0.139 ± 0.2	0.99 ± 0.017	0.116 ± 0.11	0.244 ± 0.076
Cc1nccn1CC1CCc2c(c3ccccc3n2C)C1=O (stereo not drawn) [Ondansetron hydrochloride (Zofran)]	0.102 ± 0.11	0.9984 ± 0.0027	0.107 ± 0.085	0.211 ± 0.073
CC(=O)O[C@]1(C(C)=O)CC[C@H]2[C@@H]3C=C(C)C4=CC(=O)CC[C@]4(C)[C@H]3CC[C@@]21C [Megestrol Acetate]	0.108 ± 0.076	0.9975 ± 0.0043	0.132 ± 0.11	0.206 ± 0.073
C#C[C@]1(O)CC[C@H]2[C@@H]3CCc4cc(O)ccc4[C@H]3CC[C@@]21C [Ethinyl Estradiol]	0.154 ± 0.2	0.9983 ± 0.003	0.151 ± 0.11	0.209 ± 0.061
COC(=O)/C=C/C(=O)OC [Dimethyl Fumarate]	0.0461 ± 0.044	0.989 ± 0.019	0.0977 ± 0.061	0.189 ± 0.032
C[N+](C)(CCOc1ccccc1)Cc1ccccc1.O=C([O-])c1cc2ccccc2cc1O [Bephenium Hydroxynaphthoate]	0.124 ± 0.14	0.997 ± 0.0053	0.17 ± 0.13	0.299 ± 0.29
CCC[C@@H]1C[C@@H](C(=O)N[C@@H]([C@H]2O[C@H](SC)[C@H](O)[C@@H](O)[C@H]2O)[C@H](C)Cl)N(C)C1 [Clindamycin]	0.142 ± 0.22	0.988 ± 0.02	0.116 ± 0.11	0.244 ± 0.062
Cc1ncc(CO)c(CO)c1O [Pyridoxine hydrochloride]	0.0459 ± 0.061	0.989 ± 0.018	0.0673 ± 0.052	0.219 ± 0.02
Nc1nc(N)nc(-c2cc(Cl)ccc2Cl)n1 [Irsogladine]	0.183 ± 0.29	0.989 ± 0.018	0.114 ± 0.079	0.224 ± 0.07
O=C(NCCN1CCOCC1)c1ccc(Cl)cc1 [Moclobemide]	0.104 ± 0.16	0.988 ± 0.02	0.106 ± 0.085	0.201 ± 0.061
Cn1nnc2c(C(N)=O)ncn2c1=O [Methazolastone]	0.0917 ± 0.11	0.9972 ± 0.0049	0.11 ± 0.082	0.198 ± 0.067
COc1ccc(C[C@@H]2c3cc(OC)c(OC)cc3CC[N@+]2(C)CCC(=O)OCCCCCOC(=O)CC[N@@+]2(C)CCc3cc(OC)c(OC)cc3[C@H]2Cc2ccc(OC)c(OC)c2)cc1OC [Cisatracurium besylate (Nimbex)]	0.0794 ± 0.11	0.991 ± 0.015	0.143 ± 0.099	0.233 ± 0.062
CC(=O)SCC(Cc1ccccc1)C(=O)NCC(=O)OCc1ccccc1 (stereo not drawn) [Racecadotril (Acetorphan)]	0.0555 ± 0.05	0.994 ± 0.011	0.129 ± 0.089	0.224 ± 0.077
CC1(C)[C@@H](OC(=O)CCC(=O)O)CC[C@]2(C)[C@H]3C(=O)C=C4[C@@H]5C[C@@](C)(C(=O)O)CC[C@]5(C)CC[C@@]4(C)[C@]3(C)CC[C@@H]12 [Carbenoxolone Sodium]	0.174 ± 0.21	0.9968 ± 0.0056	0.177 ± 0.17	0.288 ± 0.24
COC(=O)C1=CO[C@@H](O[C@@H]2O[C@H](CO)[C@@H](O)[C@H](O)[C@H]2O)[C@@H]2C(CO)=CC[C@H]12 [Geniposide]	0.129 ± 0.2	0.993 ± 0.012	0.105 ± 0.057	0.22 ± 0.086
CN1CC(=O)NC1=N [Creatinine]	0.0493 ± 0.057	0.989 ± 0.019	0.0885 ± 0.081	0.245 ± 0.031
O=C(c1ccccc1)c1ccc2n1CCC2C(=O)O (stereo not drawn) [Ketorolac (Toradol)]	0.0842 ± 0.067	0.9982 ± 0.0031	0.131 ± 0.099	0.22 ± 0.073

Retrieved by compound from the list above, 3 records:
Structure (SMILES)	fraction [1]	fraction [2]	fraction of reporter-positive cells with nuclear (HeLa RPS2-YFP reporter)	fraction of reporter-positive cells with nuclear (HeLa RPL29-GFP reporter)
C#C[C@]1(O)CC[C@H]2[C@@H]3CCc4cc(O)ccc4[C@H]3CC[C@@]21C [Ethinyl Estradiol]	0.154 ± 0.2	0.9983 ± 0.003	0.151 ± 0.11	0.209 ± 0.061
C[C@H]1NC(=O)NC1=O [Methylhydantoin-5-(D)]	0.246 ± 0.36	0.9964 ± 0.0062	0.184 ± 0.14	0.289 ± 0.25
O=C(NCCN1CCOCC1)c1ccc(Cl)cc1 [Moclobemide]	0.104 ± 0.16	0.988 ± 0.02	0.106 ± 0.085	0.201 ± 0.061

The listing continues.

Structure (SMILES)	fraction [1]	fraction [2]	fraction of reporter-positive cells with nuclear (HeLa RPS2-YFP reporter)	fraction of reporter-positive cells with nuclear (HeLa RPL29-GFP reporter)
CN(C)[C@@H]1C(O)=C(C(N)=O)C(=O)[C@@]2(O)C(O)=C3C(=O)c4c(O)ccc(Cl)c4[C@@](C)(O)[C@H]3C[C@@H]12 [Chlortetracycline HCl]	0.0539 ± 0.068	0.988 ± 0.021	0.0956 ± 0.094	0.27 ± 0.015
CSc1nc2cc(Cl)c(Oc3cccc(Cl)c3Cl)cc2[nH]1 [Triclabendazole]	0.0926 ± 0.13	0.982 ± 0.03	0.121 ± 0.085	0.207 ± 0.081
CCc1oc2ccccc2c1C(=O)c1cc(Br)c(O)c(Br)c1 [Benzbromarone]	0.0721 ± 0.1	0.972 ± 0.049	0.131 ± 0.092	0.208 ± 0.083
COC(=O)Nc1nc2cc([S+]([O-])c3ccccc3)ccc2[nH]1 (stereo not drawn) [Oxfendazole]	0.106 ± 0.16	0.99 ± 0.018	0.0942 ± 0.083	0.24 ± 0.076
CC(=O)N[C@@H](CS)C(=O)O [Acetylcysteine]	0.126 ± 0.14	0.9982 ± 0.0031	0.108 ± 0.089	0.21 ± 0.08
COC(=O)N/N=C/c1c[n+]([O-])c2ccccc2[n+]1[O-] [Carbadox]	0.109 ± 0.15	0.9963 ± 0.0064	0.13 ± 0.14	0.322 ± 0.22
COc1cccc2c1C(=O)c1c(O)c3c(c(O)c1C2=O)C[C@@](O)(C(C)=O)C[C@@H]3O[C@H]1C[C@H](N)[C@H](O)[C@H](C)O1 [Daunorubicin HCl (Daunomycin HCl)]	0.0505 ± 0.083	0.67 ± 0.57	0.066 ± 0.04	0.702 ± 0.44
CC(C)(C#N)c1cc(Cn2cncn2)cc(C(C)(C)C#N)c1 [Anastrozole]	0.0821 ± 0.057	0.9986 ± 0.0025	0.117 ± 0.078	0.196 ± 0.049
Cc1ccnc2c1NC(=O)c1cccnc1N2C1CC1 [Nevirapine (Viramune)]	0.11 ± 0.13	0.9975 ± 0.0043	0.116 ± 0.088	0.206 ± 0.063
CC(C[N+](C)(C)C)OC(N)=O (stereo not drawn) [Bethanechol chloride]	0.171 ± 0.27	0.99 ± 0.017	0.106 ± 0.058	0.231 ± 0.092
CCOC(=O)CCC(=O)O[C@H]1[C@H](O[C@@H]2[C@@H](C)[C@H](O[C@H]3C[C@@](C)(OC)[C@@H](O)[C@H](C)O3)[C@@H](C)C(=O)O[C@H](CC)[C@@](C)(O)[C@H](O)[C@@H](C)C(=O)[C@H](C)C[C@@]2(C)O)O[C@H](C)C[C@@H]1N(C)C [Erythromycin Ethylsuccinate]	0.0741 ± 0.046	0.9955 ± 0.0078	0.129 ± 0.092	0.235 ± 0.047
O[C@@H]1CO[C@H]2[C@@H]1OC[C@@H]2O [Isosorbide]	0.0488 ± 0.064	0.9965 ± 0.006	0.127 ± 0.11	0.204 ± 0.043
C[C@@H]1C[C@H]2[C@@H]3CCC4=CC(=O)C=C[C@]4(C)[C@@]3(Cl)[C@@H](O)C[C@]2(C)[C@@]1(OC(=O)c1ccco1)C(=O)CCl [Mometasone furoate]	0.0809 ± 0.12	0.994 ± 0.01	0.13 ± 0.1	0.255 ± 0.063
c1ccc2c(c1)CCCC2C1=NCCN1 (stereo not drawn) [tetrahydrozoline hydrochloride]	0.0874 ± 0.12	0.991 ± 0.016	0.115 ± 0.12	0.186 ± 0.043
COc1cccc2c1C(=O)c1c(O)c3c(c(O)c1C2=O)C[C@@](O)(C(=O)CO)C[C@@H]3O[C@H]1C[C@H](N)[C@@H](O)[C@H](C)O1 [Epirubicin Hydrochloride]	0.0849 ± 0.13	0.686 ± 0.54	0.0337 ± 0.024	0.731 ± 0.44
CCN1CC(CCN2CCOCC2)C(c2ccccc2)(c2ccccc2)C1=O (stereo not drawn) [Doxapram HCl]	0.0985 ± 0.13	0.988 ± 0.021	0.102 ± 0.11	0.199 ± 0.02
CN1CCN(c2c(F)cc3c(=O)c(C(=O)O)cn(CCF)c3c2F)CC1 [Fleroxacin (Quinodis)]	0.0994 ± 0.15	0.993 ± 0.012	0.0802 ± 0.061	0.226 ± 0.044
Nc1cc(N2CCCCC2)nc(N)[n+]1[O-] [Minoxidil]	0.17 ± 0.18	0.9974 ± 0.0046	0.106 ± 0.083	0.22 ± 0.055
O=C1NC(=O)C(c2ccccc2)(c2ccccc2)N1 [Phenytoin (Lepitoin)]	0.168 ± 0.26	0.9957 ± 0.0075	0.071 ± 0.042	0.218 ± 0.061
CC(C)(Oc1ccc(Cl)cc1)C(=O)O [Clofibric acid]	0.128 ± 0.19	0.992 ± 0.014	0.132 ± 0.1	0.234 ± 0.052
COc1ccccc1OCC(O)CN1CCN(CC(=O)Nc2c(C)cccc2C)CC1 (stereo not drawn) [Ranolazine (Ranexa)]	0.0599 ± 0.086	0.994 ± 0.011	0.101 ± 0.094	0.281 ± 0.13
CC(=O)O[C@H]1C(=O)[C@@]2(C)[C@H]([C@H](OC(=O)c3ccccc3)[C@]3(O)C[C@H](OC(=O)[C@H](O)[C@@H](NC(=O)c4ccccc4)c4ccccc4)C(C)=C1C3(C)C)[C@]1(OC(C)=O)CO[C@@H]1C[C@@H]2O [Paclitaxel (Taxol)]	0.0713 ± 0.051	0.993 ± 0.011	0.17 ± 0.11	0.298 ± 0.022
Clc1ccc(CCC(Cn2ccnc2)Sc2c(Cl)cccc2Cl)cc1 (stereo not drawn) [Butoconazole nitrate]	0.0852 ± 0.12	0.992 ± 0.014	0.103 ± 0.074	0.238 ± 0.069
Cc1cnc(NC(=O)C2=C(O)c3ccccc3S(=O)(=O)N2C)s1 [Meloxicam (Mobic)]	0.0943 ± 0.1	0.9986 ± 0.0024	0.113 ± 0.075	0.213 ± 0.075
CC(=O)Nc1ncc([N+](=O)[O-])s1 [Nithiamide]	0.052 ± 0.064	0.989 ± 0.019	0.123 ± 0.077	0.21 ± 0.066
Nc1ccn([C@H]2CC[C@@H](CO)O2)c(=O)n1 [Zalcitabine]	0.0969 ± 0.13	0.9986 ± 0.0024	0.126 ± 0.091	0.194 ± 0.076
